Source: publication PMC13483899

Sequences of proteins named here, by UniProt entry; tags and fusion partners are left off. Residues count along the entry.
UniProt Q03265, residues 44-553: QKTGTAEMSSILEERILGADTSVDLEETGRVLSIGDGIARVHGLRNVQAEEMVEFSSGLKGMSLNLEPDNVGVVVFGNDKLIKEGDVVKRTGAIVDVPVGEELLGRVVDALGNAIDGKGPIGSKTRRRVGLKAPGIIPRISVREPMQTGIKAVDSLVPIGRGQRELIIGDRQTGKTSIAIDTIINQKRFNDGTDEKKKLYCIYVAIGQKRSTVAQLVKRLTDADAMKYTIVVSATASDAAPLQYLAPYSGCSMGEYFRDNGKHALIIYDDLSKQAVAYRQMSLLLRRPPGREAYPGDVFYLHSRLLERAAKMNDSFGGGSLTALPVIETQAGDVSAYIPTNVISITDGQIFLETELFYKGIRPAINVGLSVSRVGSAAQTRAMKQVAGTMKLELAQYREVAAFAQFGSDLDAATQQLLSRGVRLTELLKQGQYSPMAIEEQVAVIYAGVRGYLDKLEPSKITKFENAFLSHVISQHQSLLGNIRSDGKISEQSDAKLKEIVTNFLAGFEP
UniProt P56480, residues 47-529: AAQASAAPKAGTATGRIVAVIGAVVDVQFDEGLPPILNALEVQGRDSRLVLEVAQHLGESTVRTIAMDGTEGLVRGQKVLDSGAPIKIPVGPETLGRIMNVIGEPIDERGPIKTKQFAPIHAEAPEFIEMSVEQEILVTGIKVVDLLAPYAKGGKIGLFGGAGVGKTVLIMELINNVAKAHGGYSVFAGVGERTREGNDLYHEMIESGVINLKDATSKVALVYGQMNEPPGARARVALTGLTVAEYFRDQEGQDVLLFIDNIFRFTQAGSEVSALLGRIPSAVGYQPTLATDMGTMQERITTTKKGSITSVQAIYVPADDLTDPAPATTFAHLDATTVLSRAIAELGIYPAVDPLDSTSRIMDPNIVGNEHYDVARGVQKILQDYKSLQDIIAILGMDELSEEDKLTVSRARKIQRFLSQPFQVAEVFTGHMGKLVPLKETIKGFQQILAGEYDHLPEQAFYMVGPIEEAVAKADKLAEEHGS
UniProt Q7TQ48, residues 21-472: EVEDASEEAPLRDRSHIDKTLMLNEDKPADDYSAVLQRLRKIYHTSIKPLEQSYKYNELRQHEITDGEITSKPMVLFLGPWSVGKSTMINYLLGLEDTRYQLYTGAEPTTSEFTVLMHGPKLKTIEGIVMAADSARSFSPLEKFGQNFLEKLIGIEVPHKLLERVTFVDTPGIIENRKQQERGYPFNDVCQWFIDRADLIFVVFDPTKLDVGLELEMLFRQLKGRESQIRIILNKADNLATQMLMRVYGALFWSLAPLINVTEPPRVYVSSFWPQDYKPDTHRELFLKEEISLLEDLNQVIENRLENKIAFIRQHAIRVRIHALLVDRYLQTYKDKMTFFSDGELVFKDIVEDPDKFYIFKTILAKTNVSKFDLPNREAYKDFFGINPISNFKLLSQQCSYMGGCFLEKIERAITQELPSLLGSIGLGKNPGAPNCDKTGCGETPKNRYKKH

Molecular target: T1, biotinylated human catestatin (CST; hCgA352-372) (human) (UniProt P10645)
T1 sequence (peptide, C-terminal biotin, separated from the peptide by the four-amino-acid spacer SGSG): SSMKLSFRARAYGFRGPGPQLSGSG
Experiment: affinity purification with mass spectrometry; ligand affinity chromatography: biotinylated human CST on streptavidin-agarose, incubated overnight at 4 °C with the Triton X-100-solubilized membrane fraction of mouse heart (25 mM HEPES pH 7.4, 100 mM NaCl, 2 mM MgCl2, 1 mM KCl); washed with 0.1% Triton X-100, eluted at pH 5.5; TCA precipitation, 10% SDS-PAGE, Coomassie, in-gel trypsin digest, LC-MS/MS; only the target purified

binding | Substance
binds weakly | calsequestrin (mouse (endogenous in mouse heart))
binds | mouse F1-ATP synthase α-subunit (from UniProt Q03265 44-553)
binds | mouse F1-ATP synthase β-subunit (from UniProt P56480 47-529)
binds weakly | sarcalumenin (from UniProt Q7TQ48 21-472)

Results are given in words; binding and its absence hold for the method and conditions named. In cells and extracts the contact can be indirect. A yes stands for co-enrichment or nearness to the bait. Other partners may have been found.
